Measured values from PubChem BioAssay AID2685 (National Center for Advancing Translational Sciences (NCATS), 2010).
The other results are listed elsewhere or left out. Further columns of the screen follow, without active or inactive calls. Compounds called inactive in the main read-out are mostly missing here. Words in brackets tell the shape of the fitted curve; partial curves, single points and poor fits give uncertain potencies.

Assay: qHTS Assay for Lipid Storage Modulators in Drosophila S3 Cells;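 for cell number change: cells counted by Cell Tracker Red CMTPX staining in the red channel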
Conditions: BODIPY lipid droplet fluorescence, 18-24 h; for cell number change: measured here: cell count max response, cells fed with added oleic acid
How it was run: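 Laser-scanning cytometry quantifies lipid droplet accumulation (500–530 nm total intensity; droplet/cell object ratio) in oleic acid-fed (400 uM added) Drosophila S3 cells treated with a concentration series. 20 uM Triacsin C defined 100% inhibition.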

[1] = measured here: lipid fluorescence (Fed channel) AC50, cells fed with added oleic acid
[2] = measured here: cell number channel AC50, cells fed with added oleic acid

SMILES | cell number change [%] | AC50 [1] | AC50 [2]
COc1ccc(C2N(Cc3ccccc3)CC(=O)N2/N=C(\C)c2ccccc2)cc1 (configuration not stated) | 23.9 | 16400 nM [rising, single point] | –
COc1ccc(S(=O)(=O)N2CCC(C(=O)NC3CC(C)(C)NC(C)(C)C3)CC2)cc1 | -11.2 | 3660 nM [falling, single point] | –
O=c1cc[nH]c2cccc(Cc3ccccc3)c12 | 5.17 | 73.1 nM [falling, full curve, poor fit] | –
COc1ccc(-c2cnnn2-c2ccc(NC(=O)c3ccc(S(=O)(=O)N4CCCCC4)cc3)cc2)cc1OC | – | 130 nM [rising, full curve, poor fit] | –
O=C(Nc1ccccc1)/C(=C/c1ccc(F)cc1)NC(=O)c1ccco1 | 21.7 | – | –
COc1cccc(C(=O)Nc2nnc(-c3ccccc3)s2)c1OC | -16.7 | 2590 nM [falling, full curve] | –
O=C(CCC(=O)OCC(=O)c1ccccc1)NC1CCCCC1 | 2.62 | 10300 nM [falling, single point] | –
CC(C)CCNC(=O)CN(C(=O)Cn1nnc(-c2ccc(F)cc2)n1)C1CCCC1 | -10.8 | 184 nM [falling, full curve] | –
O=C(/C=C/c1ccc(OC(F)F)cc1)OCC(=O)N1CCN(C(=O)c2ccco2)CC1 | – | 2310 nM [falling, partial curve] | –
CC1(CCBr)C(=O)N(c2ccccc2)c2ccccc21 (configuration not stated) | 2.19 | 580 nM [rising, single point] | –
O=C(COc1ccccc1)NCC(c1ccco1)N1CCN(c2ccccc2)CC1 (configuration not stated) | 32.2 | 29100 nM [rising, single point] | 2060 nM [rising, full curve]
COc1cc2cc(CCOC(=O)CCCC(=O)O)oc(=O)c2cc1OC | 13.9 | 18400 nM [rising, single point] | 1160 nM [falling, single point]
O=C(CN(Cc1ccccc1)C(=O)CCC(=O)Nc1nccs1)NCc1ccc(F)cc1 | 3.91 | 6510 nM [falling, single point] | –
CC(NC(=O)COC(=O)c1cc([N+](=O)[O-])ccc1N1CCOCC1)c1ccccc1 (configuration not stated) | -20.2 | 29100 nM [falling, single point] | –
C/C(=C\C(=O)c1ccc(F)cc1)NCc1ccc2c(c1)OCO2 | -24.7 | 32600 nM [falling, single point] | –
COc1ccc(N(CC(=O)NCc2ccccc2)C(=O)CCC(=O)Nc2cc(C)ccn2)c(OC)c1 | 0.747 | 92 nM [rising, full curve, poor fit] | –
CCOc1ccc(CCNC(=O)COC(=O)/C=C/c2ccc(OC(F)F)c(OC)c2)cc1OCC | -73.9 | 7310 nM [falling, partial curve] | 1840 nM [falling, full curve]
CCOC(=O)C1(Cc2ccccc2C)CCCN(C(=O)c2ccc(CSC)o2)C1 (configuration not stated) | -19.9 | – | –
CN(c1ccccc1)S(=O)(=O)c1cccc(NC(=O)COc2ccccc2)c1 | -21.8 | 1460 nM [falling, full curve, poor fit] | –
COc1ccc(S(=O)(=O)NC2CC2)cc1Cl | 10.2 | – | –

SMILES | cell number change [%] | AC50 [1] | AC50 [2]
CCN(CC)CCn1c2c(c(SCC(=O)Nc3ccc(C(C)C)cc3)nc1=O)CCC2 | -0.368 | 8200 nM [falling, partial curve, poor fit] | –
O=C(O)CSC1CC(=O)N(c2ccc(Cl)cc2)C1=O (configuration not stated) | -0.84 | 16.4 nM [falling, full curve] | –
Cc1ccc(CNC(=O)Cn2ccc3ccccc3c2=O)o1 | 8.36 | 731 nM [falling, full curve] | 820 nM [falling, full curve, poor fit]
Cc1ccc(CNC(=O)C(=O)NCC2OCCN2S(=O)(=O)c2ccc(Br)cc2)cc1 (configuration not stated) | -19.6 | 32600 nM [falling, single point] | –
Cc1nc2ccccn2c1C(=O)NCc1cccnc1 | 11.1 | 29100 nM [rising, single point] | –
Cc1ccc(NC(=O)COC(=O)C2CCN(c3ccc(C(F)(F)F)cn3)CC2)cc1 | 24.4 | 29100 nM [rising, single point] | 580 nM [rising, full curve, poor fit]
O=C1CC(c2ccco2)CC(O)=C1C=Nc1ccc(Br)cc1 (configuration not stated) | -0.764 | 461 nM [falling, partial curve, poor fit] | –
COC(=O)Cn1c(-c2ccc(OC)cc2)c(-c2ccc(OC)cc2)nnc1=O | -17.9 | 2590 nM [falling, full curve] | –
CCC(C)N1CCC2(CC1)N=c1c(c3c4c5c(C)c(O)c3c(O)c1=NC(=O)C(C)=CC=C[C@H](C)[C@H](O)[C@@H](C)[C@@H](O)[C@@H](C)[C@H](OC(C)=O)[C@H](C)[C@@H](OC)C=CO[C@@](C)(O5)C4=O)N2 (some centres not stated) | -33.4 | 1030 nM [falling, full curve, poor fit] | 1300 nM [falling, full curve]
O=C(NCc1cccc(C(F)(F)F)c1)C1CC(c2ccccc2C(F)(F)F)=NO1 (configuration not stated) | 1.96 | 2060 nM [rising, single point] | –
CCc1noc(C)c1C(=O)Nc1nc2c(C)cccc2s1 | 96.5 | – | 11600 nM [rising, partial curve]
CCOC(=O)CSCc1cn2cc(Cl)ccc2n1 | -17.5 | 20600 nM [falling, partial curve] | –
Cc1ccc(NS(=O)(=O)c2ccc(N3C(=O)CCC3=O)cc2)cc1 | -1.05 | 116 nM [falling, full curve, poor fit] | –
Cc1ccc(NC(=O)C/C(N)=N/O)cc1C | 167 | 29100 nM [rising, partial curve] | 23100 nM [rising, single point]
O=C1CN(C(=O)c2cccc(F)c2)C(c2ccc(F)cc2)c2cc(F)ccc2N1 (configuration not stated) | 14.4 | – | –
COc1ccc(CCNC(=O)CS(=O)(=O)Cc2nc(-c3ccccc3Cl)oc2C)cc1OC | 4.9 | 92 nM [rising, full curve, poor fit] | –
COc1cccc(CN2CC(C(=O)NCCSc3nnnn3C)CCC2=O)c1 (configuration not stated) | 16.8 | 14600 nM [falling, single point] | –
CC1CCCCN1S(=O)(=O)c1cccc2cccnc12 (configuration not stated) | – | 29100 nM [rising, single point] | –
CCCn1cc(S(=O)(=O)c2ccccc2)c(=O)c2cc(OC)c(OC)cc21 | -2.31 | 116 nM [rising, full curve, poor fit] | 2910 nM [falling, partial curve]
CN(CC(=O)Nc1ccc(F)cc1)CC(=O)Nc1ccc(F)c(F)c1F | -3.65 | 5.17 nM [falling, full curve, poor fit] | –

Compounds above with an aryl thioether with sulfur outside any ring:
SMILES | cell number change [%] | AC50 [1] | AC50 [2]
CCN(CC)CCn1c2c(c(SCC(=O)Nc3ccc(C(C)C)cc3)nc1=O)CCC2 | -0.368 | 8200 nM [falling, partial curve, poor fit] | –
COc1cccc(CN2CC(C(=O)NCCSc3nnnn3C)CCC2=O)c1 (configuration not stated) | 16.8 | 14600 nM [falling, single point] | –

Later entries:

SMILES | cell number change [%] | AC50 [1] | AC50 [2]
COc1ccc(C(=O)OCC(=O)c2ccc(Br)s2)c(OC)c1 | 32.9 | 2910 nM [rising, full curve] | 4110 nM [rising, partial curve, poor fit]
N#C/C(=C\c1ccccc1Cl)C(=O)NC(=O)Oc1ccccc1 | 4.89 | – | 651 nM [falling, single point]
O=C(O)CCCNS(=O)(=O)c1ccccc1 | -1.29 | 164 nM [falling, full curve, poor fit] | –
O=C(O)[C@H](Cc1ccccc1)N1C(=O)c2ccncc2C1=O | 15.9 | 1160 nM [rising, full curve, poor fit] | –
COc1ccccc1N(CC(O)CN(c1ccccc1)S(C)(=O)=O)S(=O)(=O)c1ccccc1 (configuration not stated) | 2.5 | 411 nM [falling, partial curve, poor fit] | –
CC(=O)c1cccc(OCc2cc(C(=O)NC3CCN(Cc4ccccc4)CC3)no2)c1 | – | 6510 nM [rising, single point] | –
CC(=O)c1cc2c(cc1NC(=O)CSc1nc3ccccc3o1)OCO2 | -18.4 | 2310 nM [rising, partial curve, poor fit] | –
COc1ccc(NC(=S)Nc2cccc(Cl)c2)cc1OC | – | 517 nM [rising, single point] | –
Cc1cc(OCC(=O)NNC(=O)CCc2ccccc2)ccc1Br | 15.8 | – | –
CN1CCC(NC(=O)c2cccs2)CC1 | 10.8 | 23100 nM [falling, partial curve, poor fit] | 82 nM [falling, full curve, poor fit]
CC1CN(C(=O)c2cc(-c3ccc(Cl)s3)nc3ccccc23)CC(C)O1 (configuration not stated) | – | 580 nM [falling, single point] | –
Cc1ccc(NC(=S)N2CCN(C)CC2)c(C)c1 | – | 1840 nM [rising, partial curve] | 651 nM [rising, partial curve, poor fit]
CC(Oc1cc(Cl)ccc1Cl)C(=O)N/N=C\c1ccnn1C (configuration not stated) | 32.3 | – | 2590 nM [rising, partial curve]
N#CCN1C(=O)C2CCCN2c2ccc(S(=O)(=O)N3CCOCC3)cc21 (configuration not stated) | -5.25 | – | –
COc1ccc(Br)cc1CNC(=O)Cc1c(C(=O)O)[nH]c2ccc(Cl)cc12 | -32.9 | – | 29100 nM [falling, single point]
CCc1ccc(C(=O)COC(=O)c2cccnc2Cl)cc1 | 54.2 | – | 29100 nM [rising, single point]
COc1cc(NC(=O)CSc2ccc3c(c2)OCCO3)cc(OC)c1OC | -26.5 | – | –
Cc1nn(CCCC(=O)NCCc2ccc(Cl)cc2)c(=O)c2nn(-c3ccccc3)c(C)c12 | -7.79 | – | –
